According to patent US20100041074A1:
No constants are given. Whether binding was seen depends on the method and setting. Some binding calls cover weakened binding; strength is not graded here.

By UniProt entry, the sequences of proteins in these tests, tags left out. Where a name states a change or a piece, a line headed by the entry shows the natural chain unless it says otherwise.
UniProt P11021: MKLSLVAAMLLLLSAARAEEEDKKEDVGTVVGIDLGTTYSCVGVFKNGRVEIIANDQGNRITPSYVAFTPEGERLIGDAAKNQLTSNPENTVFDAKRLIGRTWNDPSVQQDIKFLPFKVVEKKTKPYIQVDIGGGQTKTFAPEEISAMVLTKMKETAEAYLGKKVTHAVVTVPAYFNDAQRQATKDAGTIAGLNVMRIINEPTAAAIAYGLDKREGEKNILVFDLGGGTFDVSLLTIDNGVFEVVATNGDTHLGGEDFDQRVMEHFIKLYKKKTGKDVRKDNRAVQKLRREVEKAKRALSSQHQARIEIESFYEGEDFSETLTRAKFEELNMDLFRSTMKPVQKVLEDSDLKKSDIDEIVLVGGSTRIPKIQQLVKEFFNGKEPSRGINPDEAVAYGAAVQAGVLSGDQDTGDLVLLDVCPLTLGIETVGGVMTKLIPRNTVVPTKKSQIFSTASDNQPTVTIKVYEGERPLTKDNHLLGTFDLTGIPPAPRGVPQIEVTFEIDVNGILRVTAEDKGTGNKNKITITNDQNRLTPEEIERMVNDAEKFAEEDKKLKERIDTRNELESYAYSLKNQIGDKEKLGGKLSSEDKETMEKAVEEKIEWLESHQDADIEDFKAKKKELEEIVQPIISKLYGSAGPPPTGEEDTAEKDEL

Legend:
[1] = biological target: GRP78 expressed in human cells (cell lysate) (human) (UniProt P11021); assay: western blot, DU145 cell lysate, antibody 2 µg/ml
[2] = biological target: GST-GRP78 (376-415) (human); assay: western blot of GST fused GRP78 fragments (345-385, 376-415, 406-445)
[3] = biological target: GRP78 protein (amino acids 19-654) purified from E. coli (human) (UniProt P11021); assay: ELISA, plate coated with GRP78 protein purified from E. coli, hybridoma culture supernatant
[4] = biological target: GRP78 localized on the cell surface of human cancer cells (human) (UniProt P11021); assay: FACS on DU145 cells
[5] = biological target: GST fused GRP78 protein (GST-GRP78) purified from E. coli (human) (UniProt P11021); assay: western blot, GST fused GRP78 protein (0.1 ug), antibody 2 µg/ml
[6] = biological target: GRP78 localized on the cell surface of human cancer cells (human) (UniProt P11021); assay: FACS on DU145 cells, antibody 10 µg/ml

Measured: binding

B1: GA-21 antibody (antibody, IgG3, V domains shown)
VH: QVQLKQSGPGLVQPSQSLSITCTVSGFSLTSYGVHWVRQSPGKGLEWLGVIWSGGSTDYNEAFISRLSISKDNSKSQVFFKMNSLQANDTAIYYCARNWDYWGQGTTLTVSS
VL: DIVMSQSPSSLAVSAGEKVTMSCKSSQSLLNSRTRKNYLAWYQQKPGQSPKLLIYWASTRESGVPDRFTGSGSGTDFTLTISSVQAEDLAVYYCKQSYNLRTFGGGTKLEIK
binds: all assays above
